Data source: PubChem BioAssay AID652243 (Drosophila RNAi Screening Center, 2013)

Assay: 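Fly regulators of androgen-dependent reporter output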 (primary screen)
System: Drosophila S2R+ cells
Reagents: long dsRNA against Drosophila genes
Timing: 72 h (48 h, then 24 h hormone)
Challenge: synthetic androgen R1881 at 10 nM for 24 h
Measured: 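Per-well raw luminescence of the androgen-driven firefly reporter and of the Renilla control, two replicates each, without normalisation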
Reading the numbers: firefly reporter light: higher = more light from androgen-responsive reporter; Renilla control light: higher = more constitutive control signal (cell number, transfection)
Hit rule: 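Hit when the log firefly-to-Renilla ratio dropped or increased by a fixed fold versus the mean of GFP or LacZ controls across duplicate plates; lowering cut given as 1.5 and as 3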
Meaning of the calls: active = hit: reporter lowered or raised; inactive = no hit
The screen tested about 24,000 reagents; below is a random part of those with a known target gene and a result. In the full data, 246 (1%) were called active. 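Plates not normalised; calls are printed but the firefly/Renilla ratio behind them is not deposited; fold cut for lowering reported inconsistently.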 Raw values are not corrected between plates. The record does not give: the amount of reagent.

no.	target	DRSC id	firefly reporter light, replicate 1	firefly reporter light, replicate 2	Renilla control light, replicate 1	Renilla control light, replicate 2	activity call
1	Sirt6	DRSC16010	1.66e5	1.62e5	2.63e6	3.12e6	inactive
2	Sirt6	DRSC29965	5.72e5	6.83e5	1.56e6	1.91e6	inactive
3	kraken	DRSC00824	1.31e5	81663	8.71e5	7.14e5	inactive
4	kraken	DRSC28163	3.62e5	4.87e5	1.51e6	1.28e6	inactive
5	Rrp4	DRSC04434	6.00e5	4.51e5	9.44e5	1.09e6	inactive
6	Rrp4	DRSC29543	6.73e5	9.30e5	1.26e6	1.26e6	inactive
7	gus	DRSC04885	1.20e6	6.65e5	2.97e6	2.04e6	inactive
8	gus	DRSC04886	4.25e5	4.44e5	2.38e6	2.82e6	inactive
9	gus	DRSC27153	3.53e5	2.70e5	7.24e5	7.03e5	inactive
10	CG13587	DRSC04223	2.87e5	2.78e5	1.84e6	1.11e6	inactive
11	CG13587	DRSC29632	4.24e5	4.98e5	1.16e6	1.16e6	inactive
12	Prp5	DRSC19975	6.60e5	5.71e5	3.67e6	3.48e6	inactive
13	Prp5	DRSC27434	3.14e5	3.44e5	6.97e5	7.20e5	inactive
14	CG17746	DRSC08521	1.30e6	9.53e5	1.53e6	1.35e6	inactive
15	CG17746	DRSC23333	4.86e5	6.35e5	9.02e5	1.20e6	inactive
16	CG3732	DRSC04410	4.67e5	1.02e5	8.13e5	4.10e5	inactive
17	CG3732	DRSC25057	7.98e5	8.34e5	1.31e6	1.16e6	inactive
18	TM4SF	DRSC04661	1.07e6	8.19e5	1.68e6	1.60e6	inactive
19	Egfr	DRSC03871	2.88e5	3.06e5	6.13e5	2.21e5	inactive
20	Egfr	DRSC04613	9.33e5	5.26e5	2.52e6	1.70e6	inactive
21	Egfr	DRSC36621					inactive
22	Egfr	DRSC36622					inactive
23	CG3568	DRSC18312	2.61e5	2.91e5	3.13e6	3.24e6	inactive
24	CG3568	DRSC27793	2.22e5	2.20e5	5.58e5	6.96e5	inactive

3 consecutive reagents from above, for reference:
no.	target	DRSC id	firefly reporter light, replicate 1	firefly reporter light, replicate 2	Renilla control light, replicate 1	Renilla control light, replicate 2	activity call
20	Egfr	DRSC04613	9.33e5	5.26e5	2.52e6	1.70e6	inactive
21	Egfr	DRSC36621					inactive
22	Egfr	DRSC36622					inactive
